This passage reports AC50 results from PubChem BioAssay AID493014 (National Center for Advancing Translational Sciences (NCATS), 2011).

Usually AC50 stands for the concentration at which the activity in the assay is half-maximal.

A short description of the assay: qHTS Assay to Find Inhibitors of Chronic Active B-Cell Receptor Signaling. Particulars: ABC-DLBCL IkBa-CBG/CBR reporter, luminescence ratio (green luciferase fused to IkBa over red control in TMD8 lymphoma cells), 4 h. Put shortly: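 Concentration-response series (up to 46 uM) were applied to TMD8 dual-reporter cells for 4 h at 37C with doxycycline. Green/red ratio, after filter-overlap correction, defined %Activity; red signal alone was normalised to basal cells and zero luminescence.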

The mark [1] stands for this setting: measured here: CBR red luminescence, cell number.
The mark [2] stands for this setting: measured here: IkBa-CBG green luminescence.

Molecules are shown by their SMILES. The list shows a part of the results. Further columns of the screen follow, without active or inactive calls. Most of these compounds were active or inconclusive in the main read-out, so they are no random draw. Potencies come from curve fits of mixed quality, noted in brackets.

On to `O=C(CCC(=O)N1CCOCC1)Nc1nnc(C2CCCCC2)s1`, for which the AC50 under setting [1] was 8.2 µM [rising, partial curve, poor fit].
`O=C(NC[C@@H]1CC[C@@H](Cc2ccc(-c3ccccc3)cc2)O1)Nc1ccc(Br)cc1`: under setting [1], the AC50 was 16.4 µM [rising, partial curve].
Still for that read-out and setting: under `O=C1CN(C(=O)c2ccccc2F)C(c2ccccc2)c2cc(F)ccc2N1` (stereo unspecified) stands 25.1 µM [falling, single point]; under `CCCc1nnc2n1N=C(c1ccc(-c3cc(Cl)ccc3Cl)o1)CS2`, 16.4 µM [falling, single point]; under `CNc1c(NC(=O)COc2ccc(Cl)cc2)c(=O)oc2ccccc12`, 35.5 µM [falling, single point].
`CCS(=O)(=O)N1Cc2ccccc2CC1C(=O)Nc1cccc(OC)c1` (stereo unspecified): the AC50 under setting [1] was 4.47 µM [falling, full curve, poor fit].
Turning to `CNc1ccc(Br)cc(C(=O)/C=C/c2cc(OC)ccc2OC)c1=O`, the AC50 under setting [1] is 0.164 µM [falling, full curve, poor fit].
With `O=S(=O)(Nc1ccccc1C(F)(F)F)c1ccc(-c2ccccn2)s1`, under setting [1], the AC50 was 2.82 µM [falling, single point].
On to `COc1cc(C(=O)Nc2cc(S(C)(=O)=O)ccc2Cl)ccc1OCC(=O)N1CCOCC1`, for which the AC50 under setting [1] was 25.9 µM [falling, single point].
On to `O=C(O)c1cccc(Nc2ccc([N+](=O)[O-])cn2)c1`, for which the AC50 under setting [1] was 14.1 µM [falling, single point].
Consider `Cc1cc2c(c(=O)o1)C(c1cccs1)C(C#N)=C(N)O2` (stereo unspecified), for which the AC50 under setting [1] was 9.2 µM [falling, partial curve, poor fit].
For `Cc1ccccc1Nc1nc(Cl)c(C=O)s1`, the AC50 under setting [1] is 1.41 µM [falling, full curve].
Same read-out and setting: in the case of `COc1ccccc1CNC(=O)c1ccc2ccccc2n1` it was 3.98 µM [falling, partial curve, poor fit]; in that of `O=C1NN(c2ccccc2)C(=O)/C1=C\c1coc2ccc(O)cc2c1=O`, 10 µM [falling, single point]; in that of `Cc1ccc(Oc2nc3ccccn3c(=O)c2/C=C(\C#N)C(=O)NC2CCS(=O)(=O)C2)c(C)c1` (stereo unspecified), 11.2 µM [falling, partial curve].
For the compound `Cc1nc(N)c(C#N)c(-c2ccccc2)c1C`, the AC50 under setting [1] was 0.398 µM [falling, full curve].
For `S=C(NCc1ccc(Cl)cc1)NCc1ccco1`, the concentration at half-maximal activity (AC50) under setting [1] is 0.316 µM [rising, full curve, poor fit].
Regarding `COC(=O)c1sccc1NC(=S)Nc1ccc(C)cc1`, under setting [1], the AC50 is 20 µM [falling, partial curve, poor fit].
Regarding `Cc1ccc2cc3c(nc2c1)OCC3`, the AC50 under setting [1] is 6.31 µM [rising, single point].
For the compound `CNc1nc(-c2c(C)[nH]c3ccc(OC)cc23)cs1`, the AC50 under setting [1] is 14.1 µM [rising, single point].
Turning to `Cc1ccc(-c2nnc(-c3ccc(Br)cc3)o2)o1`, the half-maximal activity concentration (AC50) under setting [1] is 16.4 µM [rising, partial curve, poor fit].
As to `O=C(COC(=O)Cc1ccccc1F)NCCNC(=O)COC(=O)Cc1ccccc1F`, the AC50 under setting [1] was 32.6 µM [rising, partial curve, poor fit].
As to `COc1ccc(NC(=O)N/C=C/c2ccccc2)cc1`, under setting [1], the AC50 was 1.41 µM [rising, partial curve, poor fit].
For the compound `Cn1c(SCC(=O)Nc2sccc2C#N)nnc1-c1ccccc1`, the AC50 under setting [1] was 6.51 µM [rising, single point].
For the compound `Cc1cc(C)c2nc(N3CCC(C(=O)NCCCN4CC(C)CC(C)C4)CC3)sc2c1` (stereo unspecified), under setting [1], the AC50 was 15.8 µM [falling, partial curve, poor fit].
With `NC(N)=N/N=C/c1ccc(OS(=O)(=O)c2ccccc2)cc1`, the AC50 under setting [1] was 15.8 µM [falling, single point].
`Cc1cccc(NC(=O)C2CCCN(S(=O)(=O)c3cccc4nsnc34)C2)n1` (stereo unspecified): the AC50 under setting [1] was 3.66 µM [rising, single point].
Regarding `O=C1C2C3C=CC(C3)C2C(=O)N1CC1CCCO1` (stereo unspecified), the AC50 under setting [1] was 1.64 µM [rising, partial curve, poor fit].
With `CCC1CCCCN1CCCNC(=O)CN1C(=O)CSc2ccc(S(=O)(=O)N3CCC(C)CC3)cc21` (stereo unspecified), under setting [1], the AC50 was 35.5 µM [falling, single point].
Regarding `O=C(Oc1c(CN2CCOCC2)cc(Cl)c2cccnc12)c1ccccc1`, the AC50 runs as follows: under setting [1], 14.1 µM [rising, single point]; under setting [2], 4.47 µM [falling, single point].
Consider `COc1ccccc1OCCNS(=O)(=O)c1ccc2oc3ccccc3c2c1`, for which the AC50 under setting [1] was 8.2 µM [falling, partial curve].
With `CCn1ncc(C2=NOC(C(=O)NCc3ccccc3)C2)c1C` (stereo unspecified), the concentration at half-maximal activity (AC50) reads like this: under setting [1], 14.6 µM [rising, partial curve, poor fit]; under setting [2], 11.6 µM [falling, partial curve].
Regarding `COc1ccc(C(=O)N/C(=C\c2cccc([N+](=O)[O-])c2)C(=O)Nc2cccc(C(=O)O)c2)cc1`, the concentration at half-maximal activity (AC50) under setting [1] is 3.55 µM [rising, full curve, poor fit].
`Nc1ccc(C(=O)Oc2ccc([N+](=O)[O-])cc2)cc1`: under setting [1], the AC50 was 25.1 µM [rising, partial curve, poor fit].
`Clc1ccc2c(N/N=C/c3ccc(Br)cc3)ccnc2c1`: the AC50 under setting [1] is 6.51 µM [rising, single point].
Take `CC(C)(C)OC(=O)CNC(=O)c1[nH]cnc1C(=O)N[C@@H](Cc1ccccc1)C(=O)OCc1ccccc1`: the AC50 under setting [1] was 5.62 µM [falling, single point].
Turning to `NCCOc1ccccc1Cc1ccccc1`, the AC50 under setting [1] was 23.1 µM [falling, single point].
Still for that read-out and setting: under `COc1ccc(C(=O)NCC(=O)NCC(=O)OCc2ccc(Br)cc2)cc1` stands 7.94 µM [rising, partial curve, poor fit]; under `Cc1ccccc1NC(=O)Cc1c[nH]c2ccccc12`, 3.16 µM [falling, partial curve, poor fit].
Consider `Cc1cc(O)c(C(C)C)cc1N=Cc1ccccc1O`, for which the AC50 under setting [1] was 3.98 µM [falling, partial curve].
With `Cc1ccc(-c2csc(NC(=O)C3CCN(S(=O)(=O)c4cccs4)CC3)n2)cc1`, under setting [1], the AC50 was 7.31 µM [falling, partial curve].
Same read-out and setting: under `COc1ccc(OC)c(C(O)c2coc3ccc(O)c(CN(C)C)c23)c1` (stereo unspecified) stands 29.1 µM [falling, single point]; under `CCCC(O)(c1ccc(Cl)cc1)C(CN1CCOCC1)c1ccc(Cl)cc1` (stereo unspecified), 35.5 µM [falling, single point].
As for `COc1ccc(NC(=O)N(C)C[C@H]2Oc3ccc(NS(=O)(=O)c4ccc(F)cc4)cc3C(=O)N([C@H](C)CO)C[C@@H]2C)cc1`, under setting [1], the AC50 is 29.1 µM [rising, single point].
Turning to `Cc1ccc2c(c1)N(CC(=O)N1CCCC1)C(=O)c1cccnc1O2`, the AC50 under setting [1] was 6.31 µM [falling, single point].
Still for that read-out and setting: in the case of `COC(=O)/C=c1\sc2ncnn2c1=O` it was 29.1 µM [falling, partial curve, poor fit].
`O=C(COc1ccc(Cl)cc1Cl)NCCCCc1ccccc1`: the AC50 under setting [1] is 15.8 µM [rising, single point].
`CCN(CC)c1ccc(N2C(=O)CSC2=S)cc1`: the AC50 under setting [1] was 5.62 µM [rising, full curve, poor fit].
As to `N#Cc1ccc(-c2ccc(Cl)cc2)nc1SCC(=O)c1cccc(Cl)c1`, the concentration at half-maximal activity (AC50) under setting [1] is 0.82 µM [falling, full curve, poor fit].
In the case of `Cc1cccn2c(=O)c(/C=C(\C#N)S(=O)(=O)c3ccc(Cl)cc3)c(N3CCC(C(N)=O)CC3)nc12`, the AC50 under setting [1] was 0.103 µM [falling, full curve, poor fit].
Consider `C=CCSC1=N/C(=C\c2ccc3c(c2)OCO3)C(=O)S1`, for which the AC50 under setting [1] is 8.91 µM [rising, partial curve, poor fit].
As to `CCOC(=O)CSC1=NC(=O)/C(=C\c2ccc(Cl)cc2)S1`, under setting [1], the AC50 is 22.4 µM [falling, single point].
As for `Cc1cc(Cl)ccc1OCC(=O)Nc1ccccc1CO`, under setting [1], the AC50 was 0.58 µM [rising, partial curve, poor fit].
On the same count and under the same terms, in the case of `OCC1(CO)COC(c2ccccc2)=N1` it was 1.78 µM [rising, partial curve, poor fit].
With `COc1ccc(C)cc1Nc1n[n+](C)c(-c2ccc(C(=O)O)cc2)s1`, the AC50 under setting [1] is 0.398 µM [falling, full curve, poor fit].
`CCNC(=S)N/N=C1\CCCCc2ccccc21`: the AC50 under setting [2] is 18.4 µM [falling, single point].
Regarding `Cc1ccc(C(=O)NC(c2ccccc2)C(Cl)Cl)cc1` (stereo unspecified), under setting [1], the half-maximal activity concentration (AC50) is 14.6 µM [falling, partial curve].
On to `COc1ccc(C(=O)NC(=S)Nc2ccc3c(c2)Cc2ccccc2-3)cc1`, for which the AC50 under setting [1] is 10.3 µM [rising, partial curve, poor fit].
Still for that read-out and setting: in the case of `CCS(=O)(=O)Nc1cccc(C2=NN(C(=O)c3ccco3)C(c3ccco3)C2)c1` (stereo unspecified) it was 5.01 µM [falling, partial curve]; in that of `CCCNC(=O)Cc1c(C)oc2ccccc12`, 5.62 µM [rising, full curve, poor fit].
For the compound `CC(C)CC(=O)NC(=S)Nc1ccc(NC(=O)c2cccs2)cc1`, the AC50 under setting [1] is 29.1 µM [rising, single point].
Take `CN(C)C(=O)CCc1ccc2c3c([nH]c2c1)[C@]1(C)[C@@H](C(=O)N2CCOCC2)C[C@H](CC(=O)NCc2ccco2)C(=O)N1CC3`: the AC50 under setting [1] was 20.6 µM [rising, partial curve, poor fit].
For `O=C(Nc1ccc(Cl)cc1)N(Cc1nc2ccccc2c(=O)[nH]1)Cc1cccs1`, the AC50 reads like this: under setting [1], 29.1 µM [falling, single point]; under setting [2], 29.1 µM [rising, partial curve, poor fit].
